From the supplement of paper PMC12889115
Some of the results follow. These are raw signals, not scaled to a control.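 In the initial screen, polymyxin B was used at a concentration that permeabilizes Salmonella's outer membrane but not its inner membrane. Maximum growth was set by DMSO wells with or without polymyxin B. Since plates varied, data were ranked per plate, and compounds giving the lowest OD600 advanced as hits.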

Test system: Salmonella enterica serovar Typhimurium SL1344
Assay: bacterial growth OD600 after 18 h with compound and polymyxin B; higher = more bacterial growth (less inhibition)
Settings: 50 µM, Mueller-Hinton broth

SMILES | bacterial growth OD600 (polymyxin B 1 µg/mL) | bacterial growth OD600 (polymyxin B 0.75 µg/mL)
OC1CCN([C@@H]2CCN(CC3CCCC3)C[C@H]2O)CC1 | 1.07 | –
OCCC1CCN(c2ccc(-c3nc(Cc4ccccc4)no3)cn2)CC1 | 0.571 | –
CCn1ccnc1CN(CCOC)CC1CCCN(C2Cc3ccccc3C2)C1 (centres undefined) | 0.804 | –
Cc1ncc2c(c1CNC(=O)CSc1ncccn1)CCN(C(=O)c1ccc(CC(C)C)cc1)C2 | – | 0.738
CCOCc1cc(CN2CCC(CCC(=O)NCc3cccnc3)CC2)ccc1OC | 1.26 | –
O=C(Cc1ccc(N2CCNC2=O)cc1)NCCN1Cc2ccccc2OC(c2ccsc2)C1 (centres undefined) | – | 0.892
COCc1ccc(C(=O)NCc2c(C)ncc3c2CCN(C(=O)c2ccc4cc[nH]c4c2)C3)o1 | – | 0.824
CCCc1ncc(CN(C)C2CCCN(CCc3ccccc3)C2)cn1 (centres undefined) | 1.1 | –
O=C(CC1C(=O)NCCN1Cc1c(F)cccc1Cl)NCCc1ccccn1 (centres undefined) | 0.795 | –
CC(=O)c1cc(CN(C)CC2CCN(Cc3ccc(C)o3)CC2)cs1 | 0.915 | –
CCn1c(-c2cccc(OC)c2)nc2cc(NC(C)=O)cc(C(=O)NCCCOc3cccnc3)c21 | – | 0.839
Cc1nc(N2CCC(C(=O)N(C)Cc3ccc(C(F)(F)F)cc3)CC2)nc2ccccc12 | – | 0.009
O=C(CC1CC1)NC1CCCc2nc(-c3ccccc3)ncc21 (centres undefined) | 0.852 | –
CC(C)CCC(=O)N1CCC(C2(c3cccnc3)NC(=O)N(CCc3cccs3)C2=O)CC1 (centres undefined) | – | 0.853
Cc1nc(N(C)C2CCCCC2)ncc1C(C)NS(=O)(=O)N(C)C (centres undefined) | 0.928 | –
CCc1nccn1CCC(=O)N(C)CC1CCCN(CCc2ccc(F)cc2)C1 (centres undefined) | – | 0.817
C#CCN(Cc1ccco1)C(=O)CC1(c2ccccc2F)CC(=O)N(CCOC)C1=O (centres undefined) | – | 0.861
COCCN(C(=O)c1cc(OC)ccc1OC1CCN(C2CCCC2)CC1)C(C)C | 0.996 | –
C#Cc1ccc(CN2CCC(N3CCC(C(=O)NCC4CCCO4)CC3)CC2)cc1 (centres undefined) | 0.789 | –

Part of the list above in another layout.
SMILES	bacterial growth OD600 (polymyxin B 1 µg/mL)	bacterial growth OD600 (polymyxin B 0.75 µg/mL)
CCCc1ncc(CN(C)C2CCCN(CCc3ccccc3)C2)cn1 (centres undefined)	1.1	–
COCCN(C(=O)c1cc(OC)ccc1OC1CCN(C2CCCC2)CC1)C(C)C	0.996	–
